This passage reports binding signal results from paper PMC7862700.

The chains behind the UniProt entries cited, without tags or fusion partners. Where a name states a change or a piece, a line headed by the entry shows the natural chain unless it says otherwise.
UniProt O43186: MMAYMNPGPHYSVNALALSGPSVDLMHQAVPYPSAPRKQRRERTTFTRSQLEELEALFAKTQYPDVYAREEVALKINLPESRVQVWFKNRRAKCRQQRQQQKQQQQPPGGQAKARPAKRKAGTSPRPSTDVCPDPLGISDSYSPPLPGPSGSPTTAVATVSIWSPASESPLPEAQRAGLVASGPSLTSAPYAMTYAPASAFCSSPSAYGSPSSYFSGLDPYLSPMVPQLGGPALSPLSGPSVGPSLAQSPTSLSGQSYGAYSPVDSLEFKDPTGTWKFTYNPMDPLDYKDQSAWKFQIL

Experiment in all cases: DAPPL (digital affinity profiling via proximity ligation, sequencing)
Common to all, as to settings: 10 mM Tris-HCl pH 7.5, 50 mM NaCl, 1 mM DTT, 4% glycerol, room temperature, 30 min; GST-TFs on glutathione beads, 16-mer random dsDNA library, 0.1% …; high values mean tight binding; double strand, one strand shown; scale: fold enrichment (6-mer frequency, TF over GST control)

One assay addresses T1, FEV (UniProt Q99581).
T1 sequence: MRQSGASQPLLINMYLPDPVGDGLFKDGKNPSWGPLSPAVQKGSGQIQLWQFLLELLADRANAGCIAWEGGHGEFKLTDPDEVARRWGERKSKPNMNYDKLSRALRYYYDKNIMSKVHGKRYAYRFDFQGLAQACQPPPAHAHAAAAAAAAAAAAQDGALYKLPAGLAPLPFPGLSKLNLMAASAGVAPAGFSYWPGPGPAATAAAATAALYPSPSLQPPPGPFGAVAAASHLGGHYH

In the next assay the target is CRX (UniProt O43186).
The target in the next assay is T2, ELF5 (UniProt Q9UKW6-2).
T2 sequence: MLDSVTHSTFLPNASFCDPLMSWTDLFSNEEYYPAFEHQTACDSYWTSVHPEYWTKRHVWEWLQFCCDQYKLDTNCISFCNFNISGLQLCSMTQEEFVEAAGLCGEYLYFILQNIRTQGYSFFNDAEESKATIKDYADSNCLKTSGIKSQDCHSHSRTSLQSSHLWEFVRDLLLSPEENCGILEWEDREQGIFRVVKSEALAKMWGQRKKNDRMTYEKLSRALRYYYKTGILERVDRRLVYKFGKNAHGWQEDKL

Only a part is listed here, and it is no random draw. At the low end of the ranking the order means little.

For the sequence GGACGT, the binding signal with FEV is 0.676; in the assay with CRX it was 0.362; with ELF5, 0.618.

In the case of CATGTC, the binding signal with FEV stood at 0.772; with CRX, 0.514; in the assay with ELF5 it was 0.767.

In the case of CCCAGG, the binding signal with FEV turned out to be 0.75; with CRX, 0.626; in the assay with ELF5, 0.72.

With AGGCGG, the binding signal with FEV was 0.226; in the assay with CRX it was 0.205; with ELF5 it was 0.255.

CGTGTA: the binding signal was 0.633 in the assay with FEV, 0.557 with CRX and 0.697 in the assay with ELF5.

Take GGTCGG: the figures for the binding signal in the assay with FEV, with CRX and in the assay with ELF5 were 0.272, 0.194 and 0.276, respectively.

GTAGTA: the binding signal turned out to be 0.895 with FEV, 0.766 with CRX and 0.997 with ELF5.

Regarding GTATAG, the binding signal with FEV stood at 0.902; with CRX, 0.801; with ELF5, 0.933.

In the case of GCCACG, the binding signal with FEV was determined as 0.954; in the assay with CRX it was 0.745; in the assay with ELF5 it was 0.9.

As to GGCGTC, the results for the binding signal with FEV, with CRX and in the assay with ELF5 were 0.761, 0.6 and 0.834, respectively.

In the case of CCAGGC, the figures for the binding signal with FEV, with CRX and with ELF5 were 0.401, 0.372 and 0.402, respectively.

For the sequence GAGAGA, the binding signal in the assay with FEV came to 0.404; in the assay with CRX, 0.422; in the assay with ELF5 it was 0.396.

On to TGTCGT, for which the binding signal with FEV was determined as 0.746; with CRX, 0.642; in the assay with ELF5, 0.925.

As for GCGGCC, the binding signal with FEV was found to be 0.852; with CRX, 0.662; with ELF5 it was 0.706.

Regarding GAGGCC, the binding signal came to 0.444 in the assay with FEV, 0.353 in the assay with CRX and 0.377 with ELF5.

Turning to CAGTTG, the binding signal with FEV was 0.463; with CRX, 0.384; with ELF5 it was 0.426.

For GCATGT, the binding signal amounted to 0.749 with FEV, 0.624 with CRX and 0.691 with ELF5.

As for GCAGAC, the binding signal in the assay with FEV is 0.72; with CRX, 0.485; with ELF5 it was 0.734.

As to GACACG, the values for the binding signal with FEV, in the assay with CRX and with ELF5 were 0.665, 0.486 and 0.698, respectively.

For the sequence GGGGTA, the binding signal worked out at 0.717 in the assay with FEV, 0.646 with CRX and 0.725 with ELF5.

Consider ACGCAT, for which the figures for the binding signal with FEV, in the assay with CRX and in the assay with ELF5 were 0.818, 0.726 and 0.801, respectively.

As for GCACCG, the binding signal with FEV turned out to be 0.862; in the assay with CRX it was 0.489; in the assay with ELF5, 0.65.

With TAGGGA, the binding signal with FEV was 0.783; with CRX, 0.993; with ELF5, 0.898.

CAAGAG: the binding signal with FEV came to 0.733; in the assay with CRX it was 0.722; in the assay with ELF5, 0.73.

Consider GGGGCG, for which the binding signal with FEV came out at 0.638; with CRX it was 0.446; with ELF5, 0.558.

Turning to TAGTCG, the values for the binding signal with FEV, with CRX and with ELF5 were 0.455, 0.533 and 0.476, respectively.

For the sequence CGGGGA, the binding signal is 0.394 with FEV, 0.418 with CRX and 0.437 with ELF5.

Consider GACAGT, for which the binding signal with FEV came out at 0.429; with CRX, 0.351; in the assay with ELF5, 0.443.

As for CACAGT, the figures for the binding signal with FEV, with CRX and with ELF5 were 0.719, 0.544 and 0.676, respectively.

As for AGTTCA, the binding signal is 0.869 with FEV, 0.76 with CRX and 0.925 with ELF5.

Consider GTAGCC, for which the binding signal in the assay with FEV is 0.949; with CRX, 0.699; with ELF5, 0.984.

Take TGACGT: the figures for the binding signal with FEV, with CRX and in the assay with ELF5 were 0.902, 0.768 and 0.917, respectively.

As for GTGGGC, the values for the binding signal with FEV, with CRX and with ELF5 were 0.727, 0.509 and 0.672, respectively.

Turning to CCAGTC, the figures for the binding signal with FEV, with CRX and with ELF5 were 0.259, 0.239 and 0.245, respectively.

In the case of GAGACA, the results for the binding signal with FEV, in the assay with CRX and in the assay with ELF5 were 0.381, 0.297 and 0.361, respectively.

For ACGAGG, the binding signal was 0.74 in the assay with FEV, 0.613 in the assay with CRX and 0.788 in the assay with ELF5.

With CCAGAC, the values for the binding signal with FEV, with CRX and with ELF5 were 0.671, 0.619 and 0.672, respectively.

Regarding TAGACC, the results for the binding signal with FEV, in the assay with CRX and with ELF5 were 0.972, 0.84 and 0.799, respectively.

As to GTGGGG, the binding signal amounted to 0.571 with FEV, 0.489 in the assay with CRX and 0.574 with ELF5.

Take TGTGTG: the binding signal in the assay with FEV is 0.802; in the assay with CRX, 0.669; in the assay with ELF5, 0.784.

On to CCTGTC, for which the binding signal in the assay with FEV turned out to be 0.906; in the assay with CRX it was 0.639; with ELF5 it was 0.96.

On to CAGACG, for which the figures for the binding signal in the assay with FEV, with CRX and with ELF5 were 0.477, 0.367 and 0.452, respectively.

Consider AGTGAT, for which the values for the binding signal in the assay with FEV, with CRX and with ELF5 were 0.846, 0.896 and 0.895, respectively.

As for AGATAC, the binding signal with FEV worked out at 0.92; with CRX it was 0.873; in the assay with ELF5 it was 0.867.

As to CCAGAG, the binding signal with FEV was 0.663; with CRX it was 0.668; in the assay with ELF5, 0.626.

On to CGGGAT, for which the values for the binding signal with FEV, with CRX and in the assay with ELF5 were 0.587, 0.788 and 0.746, respectively.

As for CGGGGC, the binding signal turned out to be 0.574 in the assay with FEV, 0.449 with CRX and 0.555 with ELF5.

Take CGGTCG: the binding signal with FEV came out at 0.437; with CRX, 0.258; in the assay with ELF5, 0.378.

As to GAGGCA, the figures for the binding signal with FEV, with CRX and with ELF5 were 0.461, 0.363 and 0.43, respectively.

For the sequence GGACAC, the values for the binding signal in the assay with FEV, with CRX and with ELF5 were 0.812, 0.465 and 0.766, respectively.

With GTACGT, the binding signal was determined as 0.834 in the assay with FEV, 0.651 in the assay with CRX and 0.818 with ELF5.

As to GGTAGC, the binding signal turned out to be 0.795 with FEV, 0.582 in the assay with CRX and 0.834 with ELF5.

With AGTGGG, the binding signal with FEV came out at 0.649; in the assay with CRX, 0.469; with ELF5, 0.657.

Turning to GTGCAG, the binding signal was determined as 0.709 with FEV, 0.536 in the assay with CRX and 0.7 with ELF5.

Take CCCGTG: the binding signal worked out at 0.538 with FEV, 0.421 in the assay with CRX and 0.528 with ELF5.

As to CAAGAC, the binding signal with FEV was found to be 0.814; with CRX it was 0.759; in the assay with ELF5 it was 0.859.

On to GACGCT, for which the binding signal turned out to be 0.786 with FEV, 0.669 with CRX and 0.734 in the assay with ELF5.

In the case of GCTCGG, the binding signal came out at 0.745 with FEV, 0.669 with CRX and 0.731 with ELF5.

As for AGCGCG, the binding signal was determined as 0.732 with FEV, 0.665 in the assay with CRX and 0.77 in the assay with ELF5.

With AAAGTG, the binding signal was found to be 0.857 with FEV, 0.881 in the assay with CRX and 0.913 with ELF5.
